Some of the results follow.
Tests used:
Experiment in all cases: log2 fold change, soluble protein after heating vs DMSO (PISA); higher = thermal stabilisation; K562 lysate, 10 uM; active = over 0.2 and 3.5 SD of the protein, either way, in both replicates (recomputed)
[1] = compound: CN1CC[C@H](c2c(O)cc(O)c3c(=O)cc(-c4ccccc4Cl)oc23)[C@H](O)C1 [alvocidib]
Summary of the method: (§1)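 Pellets of K562 cells were dounce-homogenised in PBS pH 7.4 with 1 mM MgCl2, and the crude extract was held at 1 mg/mL protein for a 30 min treatment with 10 μM compound. Aliquots were heated for 3 min over 48°C-58°C and pooled before NP-40 was added to 0.5% at 4°C. The supernatant from 21,000xg for 90 min was quantified by TMTpro 16plex LC-MS/MS with channel sums equalised. Values are reported from duplicates as log-two fold change in thermal stability relative to solvent controls.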

Chains of the proteins cited; added tags and fusions are not shown. Lines headed by an entry give the natural chain unless they say otherwise; changes in a name come on top.
UniProt Q9BS26: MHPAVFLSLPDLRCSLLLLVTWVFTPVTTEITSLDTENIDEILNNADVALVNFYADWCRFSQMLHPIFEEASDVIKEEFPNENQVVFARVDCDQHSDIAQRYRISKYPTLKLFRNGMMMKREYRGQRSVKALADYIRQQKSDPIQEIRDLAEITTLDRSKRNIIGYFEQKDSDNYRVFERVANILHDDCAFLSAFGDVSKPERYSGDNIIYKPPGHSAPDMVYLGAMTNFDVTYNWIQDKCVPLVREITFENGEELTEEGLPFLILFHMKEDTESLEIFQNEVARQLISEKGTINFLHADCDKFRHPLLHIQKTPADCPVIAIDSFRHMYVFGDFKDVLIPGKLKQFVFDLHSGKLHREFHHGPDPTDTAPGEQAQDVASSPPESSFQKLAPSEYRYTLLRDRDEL
UniProt Q9Y624, whole entry, looked up, stated change not applied: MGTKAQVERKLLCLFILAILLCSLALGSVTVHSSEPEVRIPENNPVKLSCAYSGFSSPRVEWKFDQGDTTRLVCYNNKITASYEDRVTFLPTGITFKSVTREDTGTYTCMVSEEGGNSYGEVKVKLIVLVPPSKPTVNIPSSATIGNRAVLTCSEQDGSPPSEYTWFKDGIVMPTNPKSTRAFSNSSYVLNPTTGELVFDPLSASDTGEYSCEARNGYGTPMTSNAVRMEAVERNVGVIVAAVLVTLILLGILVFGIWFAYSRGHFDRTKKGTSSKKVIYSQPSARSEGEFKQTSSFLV
UniProt P34910: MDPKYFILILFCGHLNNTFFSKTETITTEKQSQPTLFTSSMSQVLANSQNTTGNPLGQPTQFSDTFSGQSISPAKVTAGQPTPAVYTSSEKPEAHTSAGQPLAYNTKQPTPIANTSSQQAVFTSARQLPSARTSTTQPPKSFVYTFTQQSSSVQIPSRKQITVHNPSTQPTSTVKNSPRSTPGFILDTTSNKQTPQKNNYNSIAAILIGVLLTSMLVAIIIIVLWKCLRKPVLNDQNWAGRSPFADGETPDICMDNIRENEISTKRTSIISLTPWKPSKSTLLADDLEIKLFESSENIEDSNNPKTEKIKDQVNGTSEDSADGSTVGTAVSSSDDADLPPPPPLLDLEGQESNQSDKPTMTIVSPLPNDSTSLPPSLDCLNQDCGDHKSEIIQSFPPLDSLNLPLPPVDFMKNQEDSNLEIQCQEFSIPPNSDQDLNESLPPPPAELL
UniProt P10768: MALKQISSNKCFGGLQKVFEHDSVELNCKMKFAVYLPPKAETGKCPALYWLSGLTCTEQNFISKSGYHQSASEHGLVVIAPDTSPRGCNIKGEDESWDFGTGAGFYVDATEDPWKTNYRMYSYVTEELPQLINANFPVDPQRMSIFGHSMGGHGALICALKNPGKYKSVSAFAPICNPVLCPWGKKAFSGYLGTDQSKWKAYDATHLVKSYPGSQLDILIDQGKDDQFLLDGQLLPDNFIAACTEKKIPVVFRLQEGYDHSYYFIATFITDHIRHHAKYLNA
UniProt Q5BKY9: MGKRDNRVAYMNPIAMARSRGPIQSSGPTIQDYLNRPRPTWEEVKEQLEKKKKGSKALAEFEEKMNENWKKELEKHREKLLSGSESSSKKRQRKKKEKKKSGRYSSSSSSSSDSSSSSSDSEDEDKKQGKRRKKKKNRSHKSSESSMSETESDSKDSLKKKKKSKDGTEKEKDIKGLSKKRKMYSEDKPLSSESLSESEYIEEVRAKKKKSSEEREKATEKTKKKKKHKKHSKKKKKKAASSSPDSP
UniProt Q96E09: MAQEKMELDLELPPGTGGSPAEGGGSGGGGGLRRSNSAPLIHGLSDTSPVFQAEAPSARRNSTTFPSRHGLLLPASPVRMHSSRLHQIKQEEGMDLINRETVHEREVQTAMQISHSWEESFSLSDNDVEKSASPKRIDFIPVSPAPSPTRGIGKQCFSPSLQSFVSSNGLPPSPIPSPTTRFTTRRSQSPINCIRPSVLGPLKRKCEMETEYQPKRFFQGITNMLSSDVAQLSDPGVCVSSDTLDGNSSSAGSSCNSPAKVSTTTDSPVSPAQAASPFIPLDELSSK
UniProt Q9NRY5: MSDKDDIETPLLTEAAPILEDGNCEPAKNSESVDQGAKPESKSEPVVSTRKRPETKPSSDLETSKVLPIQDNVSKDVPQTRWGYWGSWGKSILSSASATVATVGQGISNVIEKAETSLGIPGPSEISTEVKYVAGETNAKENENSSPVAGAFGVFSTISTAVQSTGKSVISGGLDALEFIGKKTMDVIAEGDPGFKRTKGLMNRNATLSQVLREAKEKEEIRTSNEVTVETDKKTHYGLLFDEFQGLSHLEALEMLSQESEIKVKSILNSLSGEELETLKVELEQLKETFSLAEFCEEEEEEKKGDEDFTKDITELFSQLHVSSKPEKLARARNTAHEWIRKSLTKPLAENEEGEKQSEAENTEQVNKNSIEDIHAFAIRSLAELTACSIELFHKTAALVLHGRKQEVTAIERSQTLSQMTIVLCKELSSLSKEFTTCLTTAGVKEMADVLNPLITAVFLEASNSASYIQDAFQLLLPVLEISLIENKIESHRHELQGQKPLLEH
UniProt Q16134: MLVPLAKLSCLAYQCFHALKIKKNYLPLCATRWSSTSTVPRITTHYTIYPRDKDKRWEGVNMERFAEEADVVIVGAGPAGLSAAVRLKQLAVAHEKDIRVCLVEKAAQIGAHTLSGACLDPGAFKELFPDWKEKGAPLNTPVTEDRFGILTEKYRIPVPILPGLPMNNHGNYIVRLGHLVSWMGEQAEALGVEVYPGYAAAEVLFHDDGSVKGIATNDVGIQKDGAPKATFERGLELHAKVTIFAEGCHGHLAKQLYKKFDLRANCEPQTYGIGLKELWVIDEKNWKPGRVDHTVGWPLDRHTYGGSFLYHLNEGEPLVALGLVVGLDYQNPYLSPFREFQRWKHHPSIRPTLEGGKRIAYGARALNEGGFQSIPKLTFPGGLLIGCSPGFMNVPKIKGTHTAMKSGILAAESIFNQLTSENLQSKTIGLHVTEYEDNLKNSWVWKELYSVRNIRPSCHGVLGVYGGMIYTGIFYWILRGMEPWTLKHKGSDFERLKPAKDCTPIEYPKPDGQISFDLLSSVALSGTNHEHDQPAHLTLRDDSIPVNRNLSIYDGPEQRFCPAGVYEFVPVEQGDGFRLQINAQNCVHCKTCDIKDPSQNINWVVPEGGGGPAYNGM
UniProt P25116: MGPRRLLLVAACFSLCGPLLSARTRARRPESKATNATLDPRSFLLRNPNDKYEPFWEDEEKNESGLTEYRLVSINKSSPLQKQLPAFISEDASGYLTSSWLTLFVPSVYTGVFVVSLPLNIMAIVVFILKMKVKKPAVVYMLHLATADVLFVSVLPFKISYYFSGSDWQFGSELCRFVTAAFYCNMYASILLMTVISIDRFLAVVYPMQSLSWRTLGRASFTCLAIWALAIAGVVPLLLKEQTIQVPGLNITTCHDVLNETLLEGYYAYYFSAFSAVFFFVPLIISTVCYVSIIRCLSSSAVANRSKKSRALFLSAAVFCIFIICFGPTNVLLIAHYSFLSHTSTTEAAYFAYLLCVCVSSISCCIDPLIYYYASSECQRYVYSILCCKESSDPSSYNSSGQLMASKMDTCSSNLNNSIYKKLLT
UniProt Q9Y421: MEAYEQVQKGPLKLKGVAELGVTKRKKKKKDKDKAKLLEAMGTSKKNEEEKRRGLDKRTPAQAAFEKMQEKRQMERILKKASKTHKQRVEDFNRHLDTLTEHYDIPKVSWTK
UniProt Q9H4H8: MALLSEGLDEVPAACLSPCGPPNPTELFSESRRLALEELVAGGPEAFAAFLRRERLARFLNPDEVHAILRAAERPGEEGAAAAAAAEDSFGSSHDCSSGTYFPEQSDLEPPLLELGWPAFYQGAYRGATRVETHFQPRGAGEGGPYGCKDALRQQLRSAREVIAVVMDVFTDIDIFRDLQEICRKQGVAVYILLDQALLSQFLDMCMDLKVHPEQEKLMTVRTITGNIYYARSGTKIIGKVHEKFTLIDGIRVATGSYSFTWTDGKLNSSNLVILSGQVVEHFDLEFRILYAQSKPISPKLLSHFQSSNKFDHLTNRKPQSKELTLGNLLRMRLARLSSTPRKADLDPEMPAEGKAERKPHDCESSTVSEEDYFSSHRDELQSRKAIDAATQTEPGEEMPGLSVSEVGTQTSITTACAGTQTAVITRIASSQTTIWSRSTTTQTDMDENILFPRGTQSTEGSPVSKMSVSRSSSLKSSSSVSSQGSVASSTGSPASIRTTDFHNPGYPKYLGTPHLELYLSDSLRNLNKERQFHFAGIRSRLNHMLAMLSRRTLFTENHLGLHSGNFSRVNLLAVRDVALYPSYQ
UniProt Q9NZB2: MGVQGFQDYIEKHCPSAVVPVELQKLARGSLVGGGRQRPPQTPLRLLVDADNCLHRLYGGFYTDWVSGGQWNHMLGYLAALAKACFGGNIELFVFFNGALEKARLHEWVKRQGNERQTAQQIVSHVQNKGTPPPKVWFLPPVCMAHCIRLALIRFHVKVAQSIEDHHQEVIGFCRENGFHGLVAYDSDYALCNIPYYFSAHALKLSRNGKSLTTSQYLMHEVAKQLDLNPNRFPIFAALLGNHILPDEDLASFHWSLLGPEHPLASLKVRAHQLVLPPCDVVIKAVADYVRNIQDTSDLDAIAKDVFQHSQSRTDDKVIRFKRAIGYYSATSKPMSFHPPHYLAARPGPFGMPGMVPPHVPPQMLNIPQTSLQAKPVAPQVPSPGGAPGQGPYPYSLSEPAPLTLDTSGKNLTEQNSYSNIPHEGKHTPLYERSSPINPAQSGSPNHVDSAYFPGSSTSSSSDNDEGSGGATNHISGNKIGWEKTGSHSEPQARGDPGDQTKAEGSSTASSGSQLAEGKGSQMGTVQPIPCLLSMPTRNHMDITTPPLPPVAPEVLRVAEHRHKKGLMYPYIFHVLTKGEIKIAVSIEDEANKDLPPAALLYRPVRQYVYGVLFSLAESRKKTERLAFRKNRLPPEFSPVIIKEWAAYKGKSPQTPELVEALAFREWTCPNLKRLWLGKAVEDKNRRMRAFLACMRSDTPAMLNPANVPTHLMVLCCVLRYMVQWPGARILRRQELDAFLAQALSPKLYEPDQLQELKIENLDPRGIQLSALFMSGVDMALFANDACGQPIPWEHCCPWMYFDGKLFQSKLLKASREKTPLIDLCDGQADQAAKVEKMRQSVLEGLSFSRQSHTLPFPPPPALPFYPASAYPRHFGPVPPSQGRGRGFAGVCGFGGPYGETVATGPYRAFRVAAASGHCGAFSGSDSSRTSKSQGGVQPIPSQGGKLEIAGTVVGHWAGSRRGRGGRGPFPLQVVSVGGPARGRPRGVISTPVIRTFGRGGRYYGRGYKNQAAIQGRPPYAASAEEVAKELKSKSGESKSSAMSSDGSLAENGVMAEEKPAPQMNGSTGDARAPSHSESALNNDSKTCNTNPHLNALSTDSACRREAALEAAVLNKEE
UniProt Q01780: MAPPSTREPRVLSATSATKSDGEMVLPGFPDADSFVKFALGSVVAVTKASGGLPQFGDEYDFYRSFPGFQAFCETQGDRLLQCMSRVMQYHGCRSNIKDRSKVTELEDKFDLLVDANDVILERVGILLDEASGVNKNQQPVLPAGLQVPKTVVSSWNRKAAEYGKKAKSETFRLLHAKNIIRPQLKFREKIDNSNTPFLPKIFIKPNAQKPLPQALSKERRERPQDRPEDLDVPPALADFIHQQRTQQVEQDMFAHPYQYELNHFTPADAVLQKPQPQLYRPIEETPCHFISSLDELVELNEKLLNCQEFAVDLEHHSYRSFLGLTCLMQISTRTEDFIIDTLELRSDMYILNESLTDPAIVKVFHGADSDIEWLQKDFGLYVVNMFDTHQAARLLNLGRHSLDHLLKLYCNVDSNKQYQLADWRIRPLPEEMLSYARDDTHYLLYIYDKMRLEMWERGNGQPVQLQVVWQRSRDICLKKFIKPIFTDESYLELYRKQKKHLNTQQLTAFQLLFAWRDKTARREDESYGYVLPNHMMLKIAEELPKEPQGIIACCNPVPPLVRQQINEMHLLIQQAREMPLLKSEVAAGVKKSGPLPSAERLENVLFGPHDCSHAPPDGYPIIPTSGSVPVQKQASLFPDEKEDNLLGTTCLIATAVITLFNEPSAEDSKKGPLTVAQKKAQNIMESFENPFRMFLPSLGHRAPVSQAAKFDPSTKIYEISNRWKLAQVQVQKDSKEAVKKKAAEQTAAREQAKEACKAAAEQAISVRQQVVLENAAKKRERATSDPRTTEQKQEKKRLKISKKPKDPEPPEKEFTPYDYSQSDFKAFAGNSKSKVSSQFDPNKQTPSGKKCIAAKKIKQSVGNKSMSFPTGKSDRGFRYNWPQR
UniProt Q96GK7: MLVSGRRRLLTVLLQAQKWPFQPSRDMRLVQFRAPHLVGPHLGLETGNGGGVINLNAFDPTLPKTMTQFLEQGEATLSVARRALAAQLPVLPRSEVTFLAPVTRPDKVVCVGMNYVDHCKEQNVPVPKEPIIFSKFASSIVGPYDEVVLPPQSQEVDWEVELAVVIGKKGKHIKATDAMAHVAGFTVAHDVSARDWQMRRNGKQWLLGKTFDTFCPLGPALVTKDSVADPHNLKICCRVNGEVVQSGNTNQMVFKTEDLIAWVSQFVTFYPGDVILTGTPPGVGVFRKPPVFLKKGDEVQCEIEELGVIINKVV

[2] = compound: CN1CCc2c(c3ccccc3n2Cc2ccc(C(=O)NO)cc2)C1 [Tubastatin A]
Summary of the method: as §1

[3] = compound: CNC(=O)C1=CC=CC=C1NC2=NC(=NC=C2Cl)NC3=C(C=C(C=C3)N4CCOCC4)OC
Summary of the method: as §1

[4] = compound: CNC(=O)c1ccc(Nc2ncc(C(F)(F)F)c(NCc3nccnc3N(C)S(C)(=O)=O)n2)cc1 [defactinib]
Summary of the method: as §1

[5] = compound: CNc1nc(-c2ccc3c(N)n[nH]c3c2)cc(N2C[C@@H](C(=O)NC3CCCCC3)CC[C@H]2C)n1
Summary of the method: as §1

[6] = compound: COC(=O)N[C@@H](C)CNc1nccc(-c2cn(C(C)C)nc2-c2cc(Cl)cc(NS(C)(=O)=O)c2F)n1 [encorafenib]
Summary of the method: as §1

[7] = compound: COC(=O)[C@H](CCSC)NC(=O)C1=C(C=C(C=C1)NC[C@H](CS)N)C2=CC=CC=C2
Summary of the method: as §1

[8] = compound: COc1cc(Nc2ncc3c(n2)-c2ccc(Cl)cc2C(c2c(F)cccc2OC)=NC3)ccc1C(=O)O [alisertib]
Summary of the method: as §1

[9] = compound: COc1cc2nc(-c3cc(F)ccc3O)nc(N[C@@H]3CNC[C@H]3C(C)(C)O)c2cc1OC
Summary of the method: as §1

[10] = compound: COc1cc2ncnc(Nc3ccc(F)c(Cl)c3)c2cc1OCCCN1CCOCC1 [gefitinib]
Summary of the method: as §1

Measured: log2 fold change

FADS1, A0A0A0MR51
inactive: [1] 0.03 | [2] 0.1 | [3] 0.158 | [4] 0.084 | [5] 0.011 | [6] -0.055 | [7] 0.03 | [8] -0.008 | [9] -0.067 | [10] -0.001

ERP44 (UniProt Q9BS26)
inactive: [1] -0.016 | [2] 0.032 | [3] -0.013 | [4] 0.001 | [5] 0 | [6] -0.01 | [7] -0.019 | [8] 0 | [9] -0.011 | [10] 0.014

F11R (UniProt Q9Y624)
inactive: [1] -0.054 | [2] 0.043 | [3] 0.027 | [4] 0.014 | [5] -0.01 | [6] -0.018 | [7] -0.038 | [8] -0.003 | [9] 0.029 | [10] 0.012

FAM219B (UniProt Q5XKK7)
inactive: [1] -0.051

FAM204A (UniProt Q9H8W3)
inactive: [1] -0.139 | [2] -0.036 | [3] 0.018 | [4] 0.146

FAAP20 isoform 2 (UniProt Q6NZ36)
inactive: [1] 0.02

EVI2B isoform 2 (UniProt P34910)
inactive: [1] -0.073

ERO1B (UniProt Q86YB8)
inactive: [1] -0.082 | [2] 0.082 | [3] -0.04 | [4] -0.002 | [5] 0.008 | [6] 0.057 | [7] 0.045 | [8] -0.005 | [9] 0.026 | [10] 0.008

ESD (UniProt P10768)
inactive: [1] 0.019 | [2] 0.005 | [3] -0.014 | [4] -0.031 | [5] -0.026 | [6] -0.06 | [7] -0.174 | [8] -0.02 | [9] -0.03 | [10] -0.05

FAM133B (UniProt Q5BKY9)
inactive: [1] 0.103 | [2] 0.018 | [3] -0.21 | [4] -0.021 | [5] 0.002 | [6] 0.039 | [7] -0.071 | [8] 0.056 | [9] -0.093 | [10] 0.184

EXOC4 (UniProt Q96A65)
inactive: [1] 0.03 | [2] -0.073 | [3] -0.053 | [4] 0.039 | [5] -0.084 | [6] 0.022 | [7] 0.078 | [8] 0.009 | [9] 0.008 | [10] -0.035

FADD (UniProt Q13158)
inactive: [1] -0.006 | [2] -0.001 | [3] 0.036 | [4] -0.126 | [5] -0.05 | [6] 0.024 | [7] -0.141 | [8] 0.003 | [9] -0.02 | [10] 0.006

FAM122A (UniProt Q96E09)
inactive: [1] -0.034 | [2] 0.172 | [3] -0.029 | [4] 0.166 | [5] 0.189 | [6] 0.037 | [7] -0.02 | [8] 0.029 | [9] -0.004 | [10] -0.039

FAM114A2 (UniProt Q9NRY5)
inactive: [1] 0.021 | [2] 0.134 | [3] 0 | [4] 0.032 | [5] 0.037 | [6] 0.219 | [7] 0.027 | [8] 0.127 | [9] 0.118 | [10] 0.073

ERVK3-1, A0A0U1RQV1
inactive: [1] -0.051 | [2] 0.008 | [3] 0.029 | [4] 0.044 | [5] 0.053 | [6] -0.01 | [7] -0.036 | [8] 0.056 | [9] 0.011 | [10] -0.036

ETFDH (UniProt Q16134)
inactive: [1] 0.009 | [2] 0.044 | [3] -0.006 | [4] -0.026 | [5] 0.146 | [6] -0.033 | [7] -0.038 | [8] -0.002 | [9] -0.041 | [10] -0.012

FAM3C (UniProt Q92520)
inactive: [1] -0.042 | [2] 0.049 | [3] -0.033 | [4] -0.016 | [5] 0.043 | [6] 0.015 | [7] -0.014 | [8] -0.008 | [9] -0.03 | [10] 0.038

EVI5L isoform 2 (UniProt Q96CN4)
inactive: [1] -0.293

F2R (UniProt P25116)
inactive: [1] -0.063

ERP29 (UniProt P30040)
inactive: [1] 0.07 | [2] 0.023 | [3] 0.006 | [4] 0.032 | [5] -0.024 | [6] -0.019 | [7] -0.049 | [8] 0.013 | [9] -0.008 | [10] -0.002

EXOSC4 (UniProt Q9NPD3)
inactive: [1] -0.009 | [2] 0.047 | [3] -0.013 | [4] 0.017 | [5] -0.018 | [6] 0.031 | [7] -0.06 | [8] -0.032 | [9] 0.018 | [10] -0.015

EXOC5 (UniProt O00471)
inactive: [1] 0.004 | [2] -0.064 | [3] -0.011 | [4] 0.007 | [5] -0.07 | [6] 0.029 | [7] -0.102 | [8] 0.029 | [9] -0.025 | [10] 0.002

ERICH1 (UniProt Q86X53)
inactive: [1] 0.041 | [2] -0.012 | [3] -0.107 | [4] 0.095 | [5] 0.012 | [6] -0.07 | [7] -0.018 | [8] -0.106 | [9] 0.072 | [10] 0.105

FAM136A (UniProt Q96C01)
inactive: [1] -0.022 | [2] 0.021 | [3] -0.004 | [4] 0.067 | [5] 0 | [6] -0.021 | [7] -0.147 | [8] 0.025 | [9] 0.018 | [10] 0.013

2 consecutive records out of the list so far, quoted:
F2R (UniProt P25116)
inactive: [1] -0.063

ERP29 (UniProt P30040)
inactive: [1] 0.07 | [2] 0.023 | [3] 0.006 | [4] 0.032 | [5] -0.024 | [6] -0.019 | [7] -0.049 | [8] 0.013 | [9] -0.008 | [10] -0.002

Carrying on:

FAM32A (UniProt Q9Y421)
inactive: [1] -0.05 | [2] 0.149 | [3] -0.029 | [4] -0.018 | [5] 0.043 | [6] 0.002 | [7] -0.005

FAM83D (UniProt Q9H4H8)
inactive: [1] -0.009 | [2] -0.044 | [3] 0.005 | [4] -0.007 | [5] 0.022 | [6] 0.026 | [7] 0.017 | [8] 0.015 | [9] 0.062 | [10] 0.009

FAM120A isoform 6 (UniProt Q9NZB2)
inactive: [1] 0 | [2] -0.018 | [3] 0.017 | [4] 0.007 | [5] 0.003 | [6] 0.001 | [7] -0.18 | [8] -0.005 | [9] -0.006 | [10] -0.017

EXOSC10 (UniProt Q01780)
inactive: [1] -0.015 | [2] -0.027 | [3] 0.05 | [4] -0.009 | [5] 0.102 | [6] -0.01 | [7] 0.059 | [8] 0.009 | [9] 0.007 | [10] -0.033

EXOC6 (UniProt Q8TAG9)
inactive: [1] -0.014 | [2] -0.092 | [3] 0.013 | [4] 0.008 | [5] -0.017 | [6] 0.015 | [7] 0.039 | [8] 0.007 | [9] 0.016 | [10] 0.003

FAHD2A (UniProt Q96GK7)
inactive: [1] -0.011 | [2] 0.008 | [3] -0.008 | [4] -0.031 | [5] 0.018 | [6] -0.03 | [7] -0.034 | [8] 0.028 | [9] 0.011 | [10] -0.012

FAM120B (UniProt Q96EK7)
inactive: [1] -0.005 | [2] -0.063 | [3] 0.016 | [4] 0.073 | [5] -0.02 | [6] 0.029 | [7] 0.034 | [8] -0.007 | [9] -0.001 | [10] 0.021

ESS2 (UniProt Q96DF8)
inactive: [1] 0.001 | [2] -0.014 | [3] 0.069 | [4] 0.019 | [5] 0.046 | [6] 0.054 | [7] 0.004 | [8] -0.011 | [9] -0.021 | [10] -0.027

FAM78A (UniProt Q5JUQ0)
inactive: [1] 0.049 | [2] 0.125 | [3] 0.008 | [4] 0.003 | [5] -0.03 | [6] -0.019 | [7] 0.126 | [8] -0.015 | [9] 0.118 | [10] -0.058

FAM162A (UniProt Q96A26)
inactive: [1] 0.072 | [2] -0.015 | [3] -0.036 | [4] -0.034 | [5] 0.081 | [6] -0.022 | [7] -0.01 | [8] 0.014 | [9] -0.035 | [10] -0.038

EYA3 (UniProt Q99504)
inactive: [1] -0.012 | [2] -0.041 | [3] -0.007 | [4] -0.002 | [5] 0.013 | [6] -0.077 | [7] 0.135 | [8] -0.011 | [9] 0.046 | [10] 0.001
